{"source": "patent US11930815B1", "about": "“3,3′-(piperazine-1,4-diyl)bis(1-(naphthalen-2-yloxy)propan-2-ol) as insecticidal agent” (priority 2023, dated 2024)", "key": {"[1]": {"system": "2nd instars of larvae of Spodoptera littoralis", "assay": "Insecticidal bioassay screening, castor leaf dip, 2nd instar larvae", "assay_type": "in vivo", "details": "2nd larvae of S. littoralis, 72 h; slope of the regression (LDP) line", "protocol": "(§1) Five concentrations (200, 100, 50, 25, 12.5 ppm) were designed for this synthetic compound and the reference fenoxycarb compound as the dynamic ingredients based on ppm via diluting the commercial formulation.\n(§2) In this experiment, castor leaves are immersed in each of the previously prepared concentrations of the components for 10 seconds and then left to dry for 60 minutes. Larvae of the second and fourth instars of each checked strain are prepared with treated leaves in gauze-covered glass containers for 72 hrs. An untreated control is made in which leaves are dipped in triton x-100 and distilled water only. Then the preserved leaves were removed & fresh, untreated leaves were provided for 72 hours. Three replicates (10 larvae each) were checked for each concentration. Daily inspection was carried out for all treatments and mortality percentages were recorded 3 days (72 hours) after treatment. The average mortality percentage was corrected employing Abbott's formula. The corrected mortality rate for each of the previously synthesized compounds is statistically calculated according to Finney (1970). Through this rate, the corresponding concentration test lines (LDP lines) are assessed. Fifty and ninety percent mortality are determined, and the regression values for the checked products were previously evaluated."}, "[2]": {"system": "4th instars of larvae of Spodoptera littoralis", "assay": "Insecticidal bioassay screening, castor leaf dip, 4th instar larvae", "assay_type": "in vivo", "details": "4th larvae of S. littoralis, 72 h; slope of the regression (LDP) line", "protocol": "as §1, §2"}}}
{"molecule": "OC(COc1ccc2ccccc2c1)CN1CCN(CC(O)COc2ccc3ccccc3c2)CC1", "note": "(stereo not shown) [Compound 9, 3,3′-(piperazine-1,4-diyl)bis(1-(naphthalen-2-yloxy)propan-2-ol)]", "values": [{"measurement": "slope ± SE", "setting": "[1]", "value": "0.293 ± 0.0862"}, {"measurement": "slope ± SE", "setting": "[2]", "value": "0.231 ± 0.0823"}]}
{"molecule": "CCOC(=O)NCCOc1ccc(Oc2ccccc2)cc1", "note": "[Fenoxycarb, reference compound]", "values": [{"measurement": "slope ± SE", "setting": "[1]", "value": "0.238 ± 0.082"}, {"measurement": "slope ± SE", "setting": "[2]", "value": "0.251 ± 0.082"}]}
